The supplement of paper PMC10689618
Some of the results follow. Single values are uncertain, as repeats are few or missing.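 Primary human fetal astrocytes engulfed labelled rat cortical synaptosomes, measured as a red/green ratio corrected for calcein live-cell signal and scaled to the plate median. Toxicity meant calcein falling over 30%; decreased phagocytosis meant below 70% of median above 5 µM.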

Tested on: Human fetal astrocytes
Test: loss of total cells relative to no-compound high-control median (toxicity); higher = more toxic (fewer cells)
Conditions: 1.39 µM; 24 h

Row | Compound | loss of total cells [%]
1 | COCC1=C(C(=O)OC(C)OC(=O)OC(C)C)N2C(=O)[C@@H](NC(=O)/C(=N\OC)c3csc(N)n3)[C@H]2SC1 (stereo not given in full) | -31.5
2 | C[C@]12CCC(=O)C=C1CC[C@@H]1[C@@H]2[C@@H](O)C[C@@]2(C)[C@H]1CC[C@]2(O)C(=O)COP(=O)(O)O | 12.2
3 | CC1(C)[C@@H](OC(=O)CCC(=O)O)CC[C@]2(C)[C@H]3C(=O)C=C4[C@@H]5C[C@@](C)(C(=O)O)CC[C@]5(C)CC[C@@]4(C)[C@]3(C)CC[C@@H]12 | -19.1
4 | C/C=C/c1ccc(OC)cc1 | -27.4
5 | CCOc1cc(CC(=O)N[C@@H](CC(C)C)c2ccccc2N2CCCCC2)ccc1C(=O)O | -19.1
6 | CC(=O)c1ccc[nH]1 | -21.4
7 | O=C(Cn1ccnc1[N+](=O)[O-])NCCO | -35.5
8 | NC(=O)c1ncn([C@@H]2O[C@H](CO)[C@@H](O)[C@H]2O)c1N | -7.4
9 | COc1cc(/C=C/C(=O)CC(=O)/C=C/c2ccc(O)c(OC)c2)ccc1O | -27
10 | COc1cc(O)c(C(C)=O)c(O)c1 | -4.1
11 | CC(=O)O[C@@H]1CC[C@@]2(C)C(C[C@@H](OC(C)=O)[C@@]3(C)C4=CC(=O)O[C@@H](c5ccoc5)[C@]4(C)CCC23)C1(C)C (stereo partly drawn) [3alpha-ACETOXYDIHYDRODEOXYGEDUNIN] | -7.6
12 | CN(C)CCCOc1nn(Cc2ccccc2)c2ccccc12 | -24.3
13 | O=c1cc(-c2ccccc2)oc2cccc(O)c12 | -17.2
14 | C1CNCCN1 | -6.8
15 | OC[C@@H](O)[C@@H](O[C@@H]1O[C@H](CO)[C@@H](O)[C@H](O)[C@H]1O)[C@H](O)[C@@H](O)CO | -28.7
16 | CC(CCc1ccc(O)cc1)NCCc1ccc(O)c(O)c1 (stereo not given) | -33.9
17 | Oc1cccc(O)c1 | 0.9
18 | COc1cc(O)c(C)c(O)c1 | 24.9
19 | CCOC(=O)Nc1nc2ccccc2[nH]1 | 19.4
20 | COc1cc2c(cc1OC)-c1c(oc3cc(O)cc(O)c3c1=O)CO2 | -22.8
21 | Nc1cc(C(Cl)=C(Cl)Cl)c(S(N)(=O)=O)cc1S(N)(=O)=O | -23.4
22 | N[C@@H](C(=O)O)[C@@H](O)[C@H](O)[C@H](O)CO | -9
23 | C[C@@H]1CC[C@@]2(OC1)O[C@H]1C[C@H]3[C@@H]4CC=C5C[C@@H](O)CC[C@]5(C)[C@H]4CC[C@]3(C)[C@H]1[C@@H]2C | 15.5
24 | Cc1cc(-c2ccccc2)nnc1NCCN1CCOCC1 | -21.6
25 | COc1cc(-c2cc(=O)c3c(O)c(OC)c(OC)c(OC)c3o2)cc(OC)c1OC | -16.4

Same assay, conditions: 2.78 µM; 24 h

Row | Compound | loss of total cells [%]
26 | NC(=O)c1cccnc1 | -2.1
27 | C[C@H]1O[C@H](O[C@H]2[C@H](O)[C@@H](O)[C@@H](O[C@@H]([C@H](O)[C@@H](O)C=O)[C@H](O)CO)O[C@@H]2CO)[C@H](O)[C@@H](O)[C@@H]1N[C@H]1C=C(CO)[C@@H](O)[C@H](O)[C@H]1O | -46
28 | CCN(CC)CCOC(=O)C(c1ccccc1)c1ccccc1 | -24.6
29 | N[C@@H](CSCSC[C@H](N)C(=O)O)C(=O)O | -6.9
30 | C=CC1=C(C)/C(=C/c2[nH]c(Cc3[nH]c(/C=C4\NC(=O)C(C)=C4C=C)c(C)c3CCC(=O)O)c(CCC(=O)O)c2C)NC1=O | -4
31 | C[C@]12CC[C@@H]3c4ccc(O)cc4CC[C@H]3[C@@H]1CC[C@@H]2OC(=O)CCC1CCCC1 | -5.1
32 | C[C@@H]1C(=O)O[C@H]2C[C@@]34[C@H]5C[C@@H](C(C)(C)C)[C@]36[C@@H](OC(=O)[C@@H]6O)O[C@@]4(C(=O)O5)[C@]21O | 6.1
33 | CN(C)CCOC(c1ccc(Cl)cc1)c1ccccn1 (stereo not given) | -10.7
34 | COc1ccc(/C=C/C(=O)O)cc1OC | 17.9
35 | COc1ccc2c(c1)O[C@H]1c3ccc(OC)cc3OC[C@@H]21 | -10
36 | CCCCC(CC)CN=C(N)N=C(N)NCCCCCCNC(N)=NC(N)=NCC(CC)CCCC (stereo not given) | -4.7
37 | Cc1ncc(C[n+]2csc(CCO)c2C)c(N)n1 | -28.6
38 | O=C(/C=C/c1ccccc1)c1ccc(O[C@@H]2O[C@H](CO)[C@@H](O)[C@H](O)[C@H]2O)cc1O | 5.3
39 | COc1ccc(C(C)=O)c(O)c1 | 6.1
40 | COc1c2ccoc2cc2oc(C)cc(=O)c12 | 8.3
41 | COCC1=C(C(=O)OC(C)OC(=O)OC(C)C)N2C(=O)[C@@H](NC(=O)/C(=N\OC)c3csc(N)n3)[C@H]2SC1 (stereo not given in full) | -23.8
42 | C[C@]12CCC(=O)C=C1CC[C@@H]1[C@@H]2[C@@H](O)C[C@@]2(C)[C@H]1CC[C@]2(O)C(=O)COP(=O)(O)O | -24.1
43 | CC1(C)[C@@H](OC(=O)CCC(=O)O)CC[C@]2(C)[C@H]3C(=O)C=C4[C@@H]5C[C@@](C)(C(=O)O)CC[C@]5(C)CC[C@@]4(C)[C@]3(C)CC[C@@H]12 | 1.5
44 | C/C=C/c1ccc(OC)cc1 | -21.4
45 | CCOc1cc(CC(=O)N[C@@H](CC(C)C)c2ccccc2N2CCCCC2)ccc1C(=O)O | -10.7

Row | Compound | loss of total cells [%]
46 | CC(=O)c1ccc[nH]1 | 4.7
47 | O=C(Cn1ccnc1[N+](=O)[O-])NCCO | -40.5
48 | NC(=O)c1ncn([C@@H]2O[C@H](CO)[C@@H](O)[C@H]2O)c1N | 1.1
49 | COc1cc(/C=C/C(=O)CC(=O)/C=C/c2ccc(O)c(OC)c2)ccc1O | -10.5
50 | COc1cc(O)c(C(C)=O)c(O)c1 | 1.8
51 | CC(=O)O[C@@H]1CC[C@@]2(C)C(C[C@@H](OC(C)=O)[C@@]3(C)C4=CC(=O)O[C@@H](c5ccoc5)[C@]4(C)CCC23)C1(C)C (stereo partly drawn) [3alpha-ACETOXYDIHYDRODEOXYGEDUNIN] | -6.6
52 | CN(C)CCCOc1nn(Cc2ccccc2)c2ccccc12 | 9.3
53 | O=c1cc(-c2ccccc2)oc2cccc(O)c12 | -14.1
54 | C1CNCCN1 | -13.9
55 | OC[C@@H](O)[C@@H](O[C@@H]1O[C@H](CO)[C@@H](O)[C@H](O)[C@H]1O)[C@H](O)[C@@H](O)CO | -12.6
56 | CC(CCc1ccc(O)cc1)NCCc1ccc(O)c(O)c1 (stereo not given) | 31.7
57 | Oc1cccc(O)c1 | -41.7
58 | COc1cc(O)c(C)c(O)c1 | 21.3
59 | CCOC(=O)Nc1nc2ccccc2[nH]1 | -36.5
60 | COc1cc2c(cc1OC)-c1c(oc3cc(O)cc(O)c3c1=O)CO2 | 2
61 | Nc1cc(C(Cl)=C(Cl)Cl)c(S(N)(=O)=O)cc1S(N)(=O)=O | -34.9
62 | N[C@@H](C(=O)O)[C@@H](O)[C@H](O)[C@H](O)CO | 4.7
63 | C[C@@H]1CC[C@@]2(OC1)O[C@H]1C[C@H]3[C@@H]4CC=C5C[C@@H](O)CC[C@]5(C)[C@H]4CC[C@]3(C)[C@H]1[C@@H]2C | 15.5
64 | Cc1cc(-c2ccccc2)nnc1NCCN1CCOCC1 | -5.2
65 | COc1cc(-c2cc(=O)c3c(O)c(OC)c(OC)c(OC)c3o2)cc(OC)c1OC | -6.9
